These are yes or no findings as the source states them, for the method shown. In cells and extracts the contact can be indirect. A yes stands for co-enrichment or nearness to the bait. Other partners may have been found. Sequences can lack the tags named with a protein.
Molecular target: T1, FLAG-tagged HAPSTR1 (human) (UniProt Q14CZ0)
T1 sequence: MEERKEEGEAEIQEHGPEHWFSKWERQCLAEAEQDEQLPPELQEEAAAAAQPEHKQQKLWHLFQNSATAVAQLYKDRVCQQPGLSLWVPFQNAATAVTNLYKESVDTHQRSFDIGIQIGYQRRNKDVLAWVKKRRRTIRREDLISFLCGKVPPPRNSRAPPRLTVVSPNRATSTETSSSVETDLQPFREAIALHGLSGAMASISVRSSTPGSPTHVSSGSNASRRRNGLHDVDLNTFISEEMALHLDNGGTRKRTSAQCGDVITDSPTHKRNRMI
Test: affinity purification with mass spectrometry; SKOV3 cells transfected with FLAG-HAPSTR1; anti-Flag magnetic beads, overnight 4 C, eluted with 3X Flag peptide; SDS-PAGE, Coomassie, Q Exactive MS; proteins found only in the HAPSTR1 flag-OE group

Protein sequences, listed by entry. Tags and fused reporters are not part of them.
UniProt O00487: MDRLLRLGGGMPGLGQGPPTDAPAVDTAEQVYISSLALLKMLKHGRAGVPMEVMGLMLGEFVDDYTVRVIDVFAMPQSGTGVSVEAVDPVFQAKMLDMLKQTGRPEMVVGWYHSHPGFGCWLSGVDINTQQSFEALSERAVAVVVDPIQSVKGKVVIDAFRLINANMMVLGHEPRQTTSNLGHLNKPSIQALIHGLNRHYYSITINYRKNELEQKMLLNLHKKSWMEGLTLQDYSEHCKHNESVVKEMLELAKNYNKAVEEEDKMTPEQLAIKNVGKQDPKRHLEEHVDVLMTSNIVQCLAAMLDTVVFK

- binding: binds
Substance: PSMD14 (from UniProt O00487 1-310)
